# Assay results reported in PubChem BioAssay AID504467 (National Center for Advancing Translational Sciences (NCATS), 2011).
# Hit rate of the full screen: of about 330,000 compounds, about 7,700 (2.3%) were called active. Inconclusive results, whose numbers are uncertain, are shown with a selection of clear calls. Calls come from the whole dose curve; as a rule, active = well fitted inhibition curve with a large enough effect; inconclusive = small, poorly fitted or top-dose-only effect, or effect the other way; inactive = flat fitted curve, though single readings scatter. Where the call is inconclusive, the potency comes from a doubtful curve fit.
# Test: qHTS screen for small molecules that inhibit ELG1-dependent DNA repair in human embryonic kidney (HEK293T) cells expressing luciferase-tagged ELG1; note: nearly all actives have a fitted effect of over 55% in size
# Details: HEK293T ELG1-luciferase reporter, luminescence, 16 h, DNA damage induced by 5-fluorouridine; activity change, negative = inhibition: at 46.1 µM (top of the series)
# Method in brief: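 DMSO vehicle served as the neutral condition. Each well held 2,000 cells given 5-fluorouridine plus compound; after 16 hr at 37 °C/5% CO2, ONE-Glo was added and luciferase measured 30 min later.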
# % is set by controls: 0 for no effect and ±100 for the full control effect; potency is the fitted concentration of half-maximal effect.
SMILES,Potency,"activity change, negative = inhibition"
CSc1ccc(/C=N/NC(=O)c2cc(O)cc(O)c2)cc1,"inconclusive: 20.6 µM [activator, partial curve]",
Cc1nc2c(-c3ccccc3)c(C)nn2c(N)c1-c1ccccc1,"inconclusive: 4.11 µM [activator, partial curve]",
CCOC(=O)N1CCN(C(=O)C2CCN(Cc3cccc(OCc4ccccc4)c3)CC2)CC1,,inactive: -1.02%
CCc1ccc(NC(=O)C2(c3ccccc3)CC2(Cl)Cl)cc1 (centres undefined),,inactive: -0.142%
O=C(Nc1cc(S(=O)(=O)Nc2ccc(Cl)cc2)ccc1N1CCCCC1)c1ccc(F)cc1,"inconclusive: 23.1 µM [inhibitor, single point]",
COc1ccc(/C=C(\C#N)C(=O)NCc2ccccc2)cc1O,,inactive: -11.5%
CC1=NOC(=O)/C1=C\c1ccc(-c2cccc(Cl)c2)o1,"inconclusive: 29.1 µM [inhibitor, single point]",
Cc1nc(N2CCCCC2)c2c(C)c(C(=O)Nc3ccc4c(c3)OCCO4)sc2n1,active: 10.3 µM,
Cc1cccc(OCC(=O)Nc2ccc3c(c2)OCCO3)c1,"inconclusive: 8.2 µM [activator, partial curve]",
N=C(N)SCc1ccc(Cl)cc1Cl,active: 10.3 µM,
Cc1ccc(S(=O)(=O)Nc2ccc(Br)cc2/C=N/n2cnnc2)cc1,"inconclusive: 35.5 µM [inhibitor, single point]",
Cc1cc(NC(=O)CCc2ccc(S(=O)(=O)N3CCOCC3)cc2)n(-c2ccccc2)n1,"inconclusive: 18.4 µM [inhibitor, single point]",
CCOC(=O)c1cc(-c2ccc(OC)cc2F)nc2c1c(C)nn2CCC#N,active: 11.6 µM,
CCOC(=O)c1nc(NCc2ccccc2)sc1C,"inconclusive: 29.1 µM [activator, single point]",
CC(=O)Nc1cccc(OCCCOc2ccc([N+](=O)[O-])cc2)c1,,inactive: -25.9%
COc1cccc(C(=O)NNC(=O)c2cccc(F)c2)c1,"inconclusive: 23.1 µM [activator, partial curve]",
Clc1cccc(Cl)c1-c1noc(-c2ccno2)n1,,inactive: 19.4%
CC1CCc2c(sc(/N=C/c3ccco3)c2C(N)=O)C1 (centres undefined),"inconclusive: 16.4 µM [activator, single point]",
Nc1nc(N2CCN(c3ccccn3)CC2)nc2ccccc12,"inconclusive: 18.3 µM [activator, partial curve]",
C=CCN(C(=O)CCC(=O)Nc1cc(C)on1)C(C(=O)NC1CCCC1)c1ccc(Cl)cc1 (centres undefined),"inconclusive: 0.82 µM [activator, full curve]",
CCOC(=O)c1cc(OC(=O)c2cccc([N+](=O)[O-])c2)n(-c2ccccc2)n1,"inconclusive: 20.6 µM [inhibitor, single point]",
O=C(Nc1cnn(Cc2ccccc2)c1)c1nc2ncccn2n1,"inconclusive: 20.6 µM [activator, partial curve]",
Clc1ccc(/C=N/Nc2nc(Cl)nc3ccccc23)cc1,"inconclusive: 25.9 µM [activator, partial curve]",

SMILES,Potency,"activity change, negative = inhibition"
CCCCNCc1cc(OCC)c(OCC(N)=O)cc1Br,,inactive: 0%
C/C(=N\Nc1ccc2nncn2n1)c1ccco1,"inconclusive: 16.4 µM [activator, partial curve, poor fit]",
CCOC(=O)CN(C(=O)COC(=O)C1(c2ccccc2)CC1)c1ccc(F)cc1,,inactive: -3.19%
O=C(Cc1ccc(-n2c(=O)c3ccccc3n(Cc3ccccc3F)c2=O)cc1)NCC1CCCO1 (centres undefined),"inconclusive: 20.6 µM [inhibitor, single point]",
COc1ccc(OC(=O)COc2ccc(Cl)cc2)cc1,,inactive: -0.857%
CC1CCCCC1NC(=O)CCS(=O)(=O)c1ccc2c(c1)NC(=O)CO2 (centres undefined),"inconclusive: 2.59 µM [activator, single point]",
Cc1cc(C(F)(F)F)nc(SCC(=O)c2cccc([N+](=O)[O-])c2)n1,,inactive: -3.89%
Cc1ccc(S(=O)(=O)Nc2ccc(C(=O)N3CCCC3)cc2)c(C)c1NS(C)(=O)=O,,inactive: 5.32%
COc1ccccc1NS(=O)(=O)c1ccc2c(c1)CCN2C(=O)CCC(=O)O,,inactive: 9.72%
COc1cccc(/C=C2\SC(=S)N(N3CCOCC3)C2=O)c1OC,"inconclusive: 14.6 µM [activator, partial curve]",
COc1ccccc1/C=N/NC(=O)c1ccc(C)nc1,,inactive: 7.55%
Cc1nc(N2CCN(c3ccccc3O)CC2)c2c(-c3ccccc3)csc2n1,active: 18.3 µM,
COc1ccc2ccccc2c1CNC(C)c1ccccc1 (centres undefined),,inactive: 0%
CC(C)CCN(N=O)[C@@H](Cc1ccccc1)CN(N=O)[C@@H](Cc1ccccc1)CN(C)N=O,,inactive: 2.25%
CC1(C)CC(NC(=O)c2cc(S(=O)(=O)N3CCCCC3)ccc2Cl)CC(C)(C)N1,"inconclusive: 20.6 µM [activator, partial curve, poor fit]",
COc1c(Br)cc(/C=N/n2c(-c3ccccc3)n[nH]c2=S)c(O)c1Br,"inconclusive: 29.1 µM [inhibitor, single point]",
COc1ccc(Nc2cc(C(=O)NCc3ccccn3)c3ccccc3n2)c(OC)c1,"inconclusive: 29.1 µM [inhibitor, single point]",
Cc1oc(-c2ccccc2Cl)cc1-c1nn2c(-c3ccco3)nnc2s1,"inconclusive: 18.4 µM [activator, single point]",
CC(=O)c1cccc(NC(=O)c2ccc(N(Cc3ccc(C)cc3)S(C)(=O)=O)cc2)c1,"inconclusive: 23.1 µM [inhibitor, single point]",
CSCC[C@H](N)C(=O)NC[C@H]1O[C@@H](n2cnc3c(N)ncnc32)[C@H](O)[C@@H]1O,"inconclusive: 29.1 µM [activator, partial curve, poor fit]",
O=C(CSc1ccccn1)N/N=C/c1ccccc1[N+](=O)[O-],"inconclusive: 13 µM [activator, single point]",
COc1cc(N=Nc2ccc3ccccc3c2)ccc1O,"inconclusive: 13 µM [activator, partial curve]",
O=c1c2c(nc3cc(-c4ccc(F)cc4)[nH]n13)CCCC2,"inconclusive: 0.708 µM [activator, partial curve]",

SMILES,Potency,"activity change, negative = inhibition"
c1ccc(-c2nnc(CSc3nnc(-c4ccncc4)n3Cc3ccco3)o2)cc1,"inconclusive: 11.2 µM [inhibitor, partial curve]",
C=CCn1c(SCCOc2ccc(OC)cc2)nnc1C(C)NC(=O)Cc1ccc(OC)cc1 (centres undefined),"inconclusive: 0.731 µM [inhibitor, full curve, poor fit]",
COc1ccc2c(c1)c1ccccc1n2C,"inconclusive: 1.16 µM [inhibitor, single point]",
O=C(CCn1c(=O)oc2ccccc21)N(Cc1ccccc1)c1ccccc1,"inconclusive: 29.1 µM [inhibitor, single point]",
CCOC(=O)c1ccc2nc(Nc3nc4ccc(F)cc4s3)sc2c1,"inconclusive: 4.61 µM [activator, full curve]",
COc1ccccc1C(=O)NCCC(=O)NC1CCC(C)CC1 (centres undefined),"inconclusive: 9.2 µM [activator, partial curve]",
COc1ccc(NS(=O)(=O)c2ccc(NC(=O)c3ccc(N(C)S(C)(=O)=O)cc3)cc2)c(OC)c1,,inactive: -15.2%
O=C(COc1ccc2c(-c3ccccc3)cc(=O)oc2c1)Nc1ccc(CCO)cc1,"inconclusive: 3.66 µM [inhibitor, partial curve]",
CCn1cc(CCC(=O)NC(C)c2ccccc2)c2ccccc21 (centres undefined),,inactive: 17.9%
CCOC(=O)c1sc(SC)nc1N,"inconclusive: 23.1 µM [activator, single point]",
O=C(Cc1ccccc1)N1CCC(c2nc(-c3ccc(F)cc3)no2)CC1,"inconclusive: 29.1 µM [inhibitor, single point]",
COc1cc2c(cc1OC)C(c1ccc(SC)cc1)CC(=O)N2 (centres undefined),,inactive: -4.15%
Cc1cccc(N2CCN(S(=O)(=O)c3ccc4c(c3)n(C)c(=O)c(=O)n4C)CC2C)c1 (centres undefined),"inconclusive: 29.1 µM [activator, single point]",
CCOCCn1c(N2CCN(c3ccc(OC)cc3)CC2)nc2c1c(=O)[nH]c(=O)n2C,"inconclusive: 23.1 µM [inhibitor, single point]",
COc1ccc(S(=O)(=O)N(C)c2nc3ccccc3n3c(CC(C)C)nnc23)cc1,,inactive: -19.4%
O=C(Nc1ccccn1)C(=O)Nc1ccccn1,"inconclusive: 7.3 µM [activator, partial curve]",
COc1cccc(N2CCN(C(=O)CC(C)(C)CC3=NS(=O)(=O)c4ccccc4N3)CC2)c1,"inconclusive: 20.6 µM [inhibitor, single point]",
NS(=O)(=O)c1ccc(N/N=C/c2ccc3c(c2)OCO3)c([N+](=O)[O-])c1,"inconclusive: 18.3 µM [activator, partial curve, poor fit]",
C=CCn1c(SCc2c(C)noc2C)nc2sc3c(c2c1=O)CCC(C)C3 (centres undefined),"inconclusive: 25.9 µM [inhibitor, partial curve, poor fit]",
COCCn1nnnc1CN(CCc1ccc(OC)c(OC)c1)Cc1cc2ccc(C)cc2[nH]c1=O,"inconclusive: 29.1 µM [inhibitor, single point]",
O=C(Nc1nc(-c2cccs2)cs1)c1ccco1,"inconclusive: 10.3 µM [activator, partial curve]",
CC1(C)Cc2[nH]c(=S)c(C#N)cc2CO1,,inactive: 7.53%
CCOc1cc(N2CCOCC2)c(OCC)cc1NC(=O)CN1CCN(Cc2ccc3c(c2)OCO3)CC1,"inconclusive: 2.31 µM [inhibitor, full curve]",

# No new results follow: three of the compounds above.
SMILES,Potency,"activity change, negative = inhibition"
O=C(Cc1ccccc1)N1CCC(c2nc(-c3ccc(F)cc3)no2)CC1,"inconclusive: 29.1 µM [inhibitor, single point]",
COc1cc2c(cc1OC)C(c1ccc(SC)cc1)CC(=O)N2 (centres undefined),,inactive: -4.15%
Cc1cccc(N2CCN(S(=O)(=O)c3ccc4c(c3)n(C)c(=O)c(=O)n4C)CC2C)c1 (centres undefined),"inconclusive: 29.1 µM [activator, single point]",
